Square brackets hold non-standard residues; d marks the D form. * marks the point of attachment. Trt = c1ccc(C(c2ccccc2)(c2ccccc2)*)cc1; Fmoc = O=C(OCC1c2ccccc2-c2ccccc21)*; NMeA = CN[C@@H](C)C(=O)O; Cbz = O=C(OCc1ccccc1)*; Boc = CC(C)(C)OC(=O)*; OBn = c1ccc(CO*)cc1; Bn = c1ccc(C*)cc1

The text below walks through data of patent US20200291061 (published 2020).

A short description of the first data set: solution-phase peptide synthesis; 1-ethyl-3-(3-dimethylaminopropyl)carbodiimide hydrochloride. The conditions noted are these: coupling step.
Turning to Boc-Phe-Phe-Phe-Phe-OSi(tBu)2(CH2TMS), the step yield turned out to be 99%.

The nature of another data set: general procedure: solution-phase peptide synthesis; 1-ethyl-3-(3-dimethylaminopropyl)carbodiimide hydrochloride. The conditions noted are these: coupling step.
The substance “Boc-Ala-Arg(Ts)-Arg(Ts)-Arg(Ts)-Ala-Arg(Ts)-OBIBS” displayed a step yield of 102%. The same measure, in the same setting: with Boc-Ala-Ser(Bn)-Phe-Phe-OSi(sBu)2(tBu) the figure was 89%; with Boc-Ala-Val-Pro-Phe-OSi(tBu)3, 85%; with Boc-Arg(Ts)-Arg(Ts)-Ala-Arg(Ts)-OBIBS, 78%. Take “Boc-Arg(Ts)-Arg(Ts)-Arg(Ts)-Ala-Arg(Ts)-OBIBS”: the step yield is listed as 86%.

Boc-MePhe-MePhe-MePhe-MePhe-OBIBS registered a step yield of 90%. Still for that read-out and setting: with Boc-Phe-Phe-Phe-Phe-OCHCS the figure was 94%; with Boc-Phe-Phe-Phe-Phe-OCPCS, 91%; with Boc-Phe-Phe-Phe-Phe-OIPBS, 89%. In turn, Boc-Phe-Phe-Phe-Phe-OIPCS showed a step yield of 81%. Boc-Phe-Phe-Phe-Phe-OSBCS gave a step yield of 96%. On the same count and under the same terms, with Cbz-Lys(Boc)-Phe-Phe-Phe-OSi(OtBu)3 the figure was 90%; with “Cbz-MeAla-Cys(Trt)-Ala-Phe-Phe-OSi(tBu)2(Bn)”, 75%. For Cbz-MePhe-MePhe-MePhe-MePhe-MePhe-OBIBS, the step yield came out at 93%. For Cbz-Phe-Phe-Ala-Val-Pro-Phe-OSi(tBu)3, the step yield stood at 89%. Same read-out and setting: with “Cbz-Phe-Phe-Phe-Phe-Phe-OSi(tBu)2(C18H37)” the figure was 95%.

“Fmoc-Cys(Trt)-Ala-Arg(Ts)-Arg(Ts)-Arg(Ts)-Ala-Arg(Ts)-OBIBS” registered a step yield of 92%. In turn, Fmoc-Cys(Trt)-Ala-Phe-Phe-OSi(tBu)2(Bn) returned a step yield of 90%. In the case of “Fmoc-Gly-Asp(OBn)-Phe-Phe-OSi(tBu)2(OCH2CH2Ph)”, the step yield is on record as 90%. Consider Fmoc-Gly-Phe-Phe-Phe-OSi(tBu)2(Ph), for which the step yield is 71%. Still for that read-out and setting: the value for “Fmoc-Lys(Cbz)-Gly-Asp(OBn)-Phe-Phe-OSi(tBu)2(OCH2CH2Ph)” was 49%. The substance Fmoc-Phe-Ala-Val-Pro-Phe-OSi(tBu)3 had a step yield of 99%. Fmoc-Phe-Phe-Phe-Phe-OSi(tBu)2(C18H37) returned a step yield of 94%. As to Fmoc-Phe-Phe-Phe-Phe-OTIPS, the step yield worked out at 77%. For the substance “Fmoc-Pro-Ala-Ser(Bn)-Phe-Phe-OSi(sBu)2(tBu)”, the step yield is on record as 100%. The substance “Fmoc-Ser(Bn)-Ala-Phe-Phe-O(t-Bu)Silolane” came in with a step yield of 30%.

The data set is the same for the next values; noted with them: coupling step, 2-Step Yield.
The substance Cbz-Phe-Phe-Phe-Phe-Phe-OCHCS yielded a step yield of 54%. For the substance Cbz-Phe-Phe-Phe-Phe-Phe-OCPCS, the step yield is recorded as 72%. On to Cbz-Phe-Phe-Phe-Phe-Phe-OIPBS, for which the step yield is given as 86%.

The substance Cbz-Phe-Phe-Phe-Phe-Phe-OIPCS registered a step yield of 93%.

Consider Cbz-Phe-Phe-Phe-Phe-Phe-OSBCS, for which the step yield stood at 96%.

Staying with this data set, now noted: late stage modification step.
The substance “Ac-Cys(Trt)-Ala-Arg(Ts)-Arg(Ts)-Arg(Ts)-Ala-Arg(Ts)-OBIBS” displayed a step yield of 100%. Take “Ac-Cys(Trt)-Ala-Arg(Ts)-Arg(Ts)-Arg(Ts)-Ala-Arg(Ts)-OH”: the step yield turned out to be 85%.

The substance Cbz-FFAVPF-OH displayed a step yield of 88%. Cbz-K(Boc)FFF-OH registered a step yield of 76%. As for Cbz-MePhe-MePhe-MePhe-MePhe-MePhe-OH, the step yield is listed as 95%. Same read-out and setting: the value for Cbz-[NMeA]C(Trt)AFF-OH was 100%. Same read-out and setting: the value for Fmoc-K(Cbz)GD(OBn)FF-OH was 69%; that for Fmoc-PAS(Bn)FF-OH was 72%.

As for “H-Ala-Arg(Ts)-Arg(Ts)-Arg(Ts)-Ala-Arg(Ts)-OBIBS”, the step yield was found to be 98%. Take H-Ala-Ser(Bn)-Phe-Phe-OSi(sBu)2(tBu): the step yield is 79%. The same measure, in the same setting: the value for “H-Ala-Val-Pro-Phe-OSi(tBu)3 hydrochloride” was 100%.

In turn, H-Arg(Ts)-Arg(Ts)-Ala-Arg(Ts)-OBIBS registered a step yield of 104%. Substance “H-Arg(Ts)-Arg(Ts)-Arg(Ts)-Ala-Arg(Ts)-OBIBS” came in with a step yield of 95%. The same measure, in the same setting: the value for “H-Cys(Trt)-Ala-Arg(Ts)-Arg(Ts)-Arg(Ts)-Ala-Arg(Ts)-OBIBS” was 81%; that for “H-Gly-Asp(OBn)-Phe-Phe-OSi(tBu)2(OCH2CH2Ph)” was 49%; that for H-MePhe-MePhe-MePhe-MePhe-OBIBS was 99%. Still for that read-out and setting: with H-Phe-Ala-Val-Pro-Phe-OSi(tBu)3 the figure was 97%; with H-Phe-Phe-Phe-Phe-OSi(tBu)2(C18H37), 96%; with H-Phe-Phe-Phe-Phe-OSi(tBu)2(CH2TMS), 98%.
